Test results taken from PubChem BioAssay AID651640 (Broad Institute, 2012).
Several values for one entry are separate records, joined by “and”; a condition that tells them apart may be missing. Equal entries are not always repeated. Hit rate of the full screen: of about 350,000 compounds, about 6,000 (1.7%) were called active. Inconclusive results, whose numbers are uncertain, are shown with a selection of clear calls. Rule as the data show it: active = CPE inhibition above about 20% (passing the limit was not always enough); inconclusive = no clear call, values can overlap the other calls; tested in BHK-21 cells. A structure can be active in one record and inactive in another.

Experiment: protection of cells from dengue 2 killing – plate reader, single concentration, primary screen (AID 651640);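 also: 0% = median of neutral control wells and 100% = median of positive control wells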
Details: DENV2-infected cells, cytopathic effect rescue, at 9.99 µM, active compounds read high

SMILES	CPE inhibition
C[C@@H]1CN([C@@H](C)CO)C(=O)c2cccc(NC(=O)c3ccc(-c4nccs4)cc3)c2O[C@H]1CN(C)C	active: 73%
CSc1cccc(CN2CCC(n3nccc3NC(=O)C3CC3)CC2)c1	inconclusive: 32.8%
O=C(C[C@H]1C[C@H]2c3cc(NS(=O)(=O)c4ccc(F)cc4)ccc3O[C@H]2[C@@H](CO)O1)NCc1cccnc1	inactive: -0.802%
CCOC(=O)c1ccc(S(=O)(=O)N2CCN(C(C)=O)CC2)cc1	inconclusive: 31.2%
O=C(Nc1ccc2c(c1)[C@@H]1C[C@@H](CC(=O)N3CCOCC3)O[C@H](CO)[C@@H]1O2)c1cccnc1	inconclusive: 22.1%
CCOC(=O)CSc1nnc(COc2ccc3ccccc3c2)o1	inconclusive: 34.3%
CCOC(=O)CCCCCC(=O)Nc1ccc2c(c1)C(=O)N([C@H](C)CO)C[C@H](C)[C@H](CN(C)C(=O)C1CCCCC1)OCCCC[C@@H](C)O2	inconclusive: 20.3%
COc1ccc(NC(=O)N2[C@@H]3CNC[C@H]2C3c2ccc(-c3ccccc3)cc2)cc1 (stereo partly drawn)	inconclusive: 22.4%
COc1ccc(C(C)NC(=O)C2CCCC2)cc1OC (stereo not drawn)	inconclusive: 26.3%
COc1cccc(OC)c1C(=O)NNC(=O)c1ccccc1-n1cccc1	inconclusive: 35%
NC(=O)c1cc(S(=O)(=O)N2CCOCC2)cs1	inconclusive: 31.9%
COc1ccc(C(=O)COC(=O)c2cccnc2SC)cc1	inconclusive: 36.5%
COc1ccc(-c2cn(CC[C@H]3CC[C@@H](NC(=O)CCN4CCCCC4)[C@@H](CO)O3)nn2)cc1	inactive: 0.687%
Oc1ccccc1/C=N/NC(=S)NC1CC2C=CC1C2 (stereo not drawn)	inactive: 9.9%
C[C@H](NC(=O)[C@H]1[C@H](CO)[C@H]2Cn3c(ccc(C4=CCCCC4)c3=O)[C@@H]1N2)c1ccccc1	inactive: 6.13%
CCCN1C[C@@H](C)[C@@H](OC)CN(C)C(=O)c2ccc(NC(=O)Nc3cccc(OC)c3)cc2OC[C@@H]1C	inconclusive: 36.3%
COCCNC(=O)c1cc(S(=O)(=O)N(C)C2CCCCC2)ccc1Cl	inconclusive: 26.6%
CCCC(=O)Nc1ccc2c(c1)C(=O)N(C)C[C@@H](OC)[C@@H](C)CN(C(C)=O)[C@@H](C)CO2	inactive: 10.1%
CO[C@H]1CN(C)C(=O)c2cc(NS(C)(=O)=O)ccc2OC[C@@H](C)N(CC2CC2)C[C@H]1C	inactive: -3.01%
COc1ccc(C#Cc2cnc3c(c2)C(=O)N([C@H](C)CO)C[C@@H](C)[C@@H](CN(C)CC2CCCC2)O3)cc1	inconclusive: 36%
CCCNC(=O)N1C[C@H](O)COC[C@@H]2O[C@@H](CC(=O)N3CCOCC3)CC[C@H]21	active: 108%
O=C(CNS(=O)(=O)c1cccc(Br)c1)NCCCc1ccccc1	inactive: -3.44%
CC(=O)Nc1cccc(-c2cc(N3CCN(CCO)CC3)n3nccc3n2)c1	inactive: -0.115%
COc1ccc(NC(=O)N(C)C[C@H]2OCc3ccccc3-c3ccccc3C(=O)N([C@H](C)CO)C[C@@H]2C)c(OC)c1	inactive: -2.94%
C[C@H](CO)N1C[C@H](C)[C@@H](CN(C)CC2CCCC2)Oc2cc(C#CC(C)(C)O)ccc2S1(=O)=O	inactive: 3.12%

A second format for three compounds above.

| SMILES | CPE inhibition |
| --- | --- |
| COc1cccc(OC)c1C(=O)NNC(=O)c1ccccc1-n1cccc1 | inconclusive: 35% |
| NC(=O)c1cc(S(=O)(=O)N2CCOCC2)cs1 | inconclusive: 31.9% |
| COc1ccc(C(=O)COC(=O)c2cccnc2SC)cc1 | inconclusive: 36.5% |

Next part.

SMILES	CPE inhibition
COc1ccccc1CNC(=O)CNC(=O)c1cn(-c2ccccc2OC)c(=O)c2ccccc12	inconclusive: 38.1%
CCCNC(=O)N1CC2(CCN(CC3CC3)CC2)c2c([nH]c3cc(OC)ccc23)[C@@H]1CO	active: 24.4%
Cc1noc(C)c1NC(=O)Nc1ccc2c(c1)C(=O)N([C@H](C)CO)C[C@H](C)[C@H](CN(C)C)O2	inactive: 1.71% and inactive: -4.13%
CN1CCN(C(=O)C[C@@H]2CC[C@@H]3[C@H](COC[C@@H](O)CN3Cc3cccc(Cl)c3)O2)CC1	active: 30.8%
CC(=O)n1cc([C@H]2C=C(C(=O)N3CCN(Cc4ccc5c(c4)OCO5)CC3)O[C@@H](OCc3ccc(CO)cc3)C2)c2ccccc21	active: 24.3%
O=C(c1cccc(F)c1)N1C[C@@H]2[C@H](c3ccccc31)[C@@H](CO)N2C(=O)C1CC1	active: 55.4%
O=C(C1=C(O)C(=O)N(CCN2CCOCC2)C1c1cccc(Br)c1)c1cccs1 (stereo not drawn)	inconclusive: 31.3%
COC(=O)C[C@@H]1C=C[C@H](NS(=O)(=O)c2ccc(OC)cc2)[C@@H](CO)O1	inactive: 9.76%
C[C@H](CO)N1C[C@H](C)[C@H](CN(C)Cc2ccc(C(=O)Nc3ccccc3N)cc2)Oc2ccc(NC(=O)Nc3ccc4c(c3)OCO4)cc2C1=O	inconclusive: 29.5%
CCOc1ccc(-n2nc3c(SCCN4CCCC4)nnc(C)c3c2C)cc1	inconclusive: 51.3%
O=S1(=O)CCC(N=Nc2c(O)n(Cc3ccccc3)c3ccccc23)C1 (stereo not drawn)	inconclusive: 20.6%
O=C(Nc1ccn(CCCN2CCN(Cc3ccc(F)cc3)CC2)c(=O)n1)OCc1ccccc1	inconclusive: 68.1%
CN1CCN(C(=O)C[C@@H]2CC[C@H](NC(=O)c3ccc4c(c3)OCO4)[C@H](CO)O2)CC1	inactive: -2.1%
Cc1cc(OCC(=O)N2CCC(O)(c3ccc(Cl)cc3)CC2)c2c(C)cc(=O)oc2c1	inconclusive: 30.7%
CCS(=O)(=O)N1CCC2(CC1)CN(C(=O)Cc1ccccn1)[C@H](CO)c1[nH]c3cc(OC)ccc3c12	inactive: 13.2%
CCCc1cc(=O)oc2cc(OC(C)C(=O)NCC3CCC(C(=O)O)CC3)c(Cl)cc12 (stereo not drawn)	inconclusive: 54.7%
CCOC(=O)C1=C(COC(=O)/C=C/c2cccc(Br)c2)NC(=O)NC1C (stereo not drawn)	inconclusive: 40.5%
O=C(COc1ccccc1Cl)NNC(=O)c1ccc(-n2cncn2)c([N+](=O)[O-])c1	inconclusive: 38.6%
Cc1cccc(NC(=O)CCN2CCC(C)CC2)c1	inconclusive: 27.8%
O=C(NCCc1ccccc1)[C@H]1[C@H](CO)[C@H]2Cn3c(cccc3=O)[C@@H]1N2CC1CC1	inconclusive: 20.1%
CN(C)CC(=O)Nc1ccc2c(c1)[C@@H]1C[C@H](CC(=O)NCCc3ccccc3)O[C@@H](CO)[C@@H]1O2	inconclusive: 20.9%
COc1ccccc1NC(=O)C1CCCN1C(=O)NC1CCCCC1 (stereo not drawn)	inconclusive: 28.2%
CC(C)[C@H](NC(=O)c1ccco1)C(=O)OCC(=O)Nc1ccc(Cl)c(S(=O)(=O)N(C)C)c1	inconclusive: 20.8%
CCOc1ccccc1C(=O)NCC(=O)OCc1csc(CC(=O)Nc2ccc(C)cc2)n1	inconclusive: 28.6%
CN(C(=O)COC(=O)c1ccccc1OCc1ccc(F)cc1)C1CCS(=O)(=O)C1 (stereo not drawn)	inconclusive: 25.8%

SMILES	CPE inhibition
COc1ccc2c3c(n(C)c2c1)[C@H](CO)N(CC1CC1)CC31CCN(Cc2ccc(F)cc2)CC1	inactive: 0.929%
CCOc1ccccc1N1CCN(CC(=O)Nc2ccccc2C(=O)NC2CC2)CC1	inconclusive: 26.3%
Cc1cc(Cl)c(OCCCCN2CCOCC2)c(Br)c1	inconclusive: 71.5%
CCOCc1c(C(=O)Nc2ccc(OC)nc2)oc2ccccc12	inactive: 7.79%
CCc1nc2c(OCc3ccc(Cl)cc3)cccn2c1N(C)C(=O)c1ccccc1F	inactive: 9.81%
COCCNC(=O)C1CCCN(C(=O)Cc2cccc3ccccc23)CC1 (stereo not drawn)	inconclusive: 80.9%
Cc1cc2cc(CNC(=O)c3ccc(C)c([N+](=O)[O-])c3)ccc2[nH]1	inactive: 9.24%
CC(C)(C)NC(=O)C(c1ccccc1)n1c(=O)c(-c2ccco2)nc2ccccc21 (stereo not drawn)	inconclusive: 38.9%
C[C@@H]1CCCCO[C@H](CN(C)S(=O)(=O)c2cccs2)[C@@H](C)CN([C@@H](C)CO)C(=O)c2cc(NC(=O)c3ccccc3)ccc2O1	active: 22.8%
CCOC(=O)c1[nH]c2ccccc2c1NC(=S)Nc1cc(C)ccc1C	inconclusive: 32.3%
COc1ccccc1NC(=O)CSc1ccc2nnc(-c3ccncc3)n2n1	inconclusive: 27.5%
COc1ccc(COCCN2CCN(S(=O)(=O)c3ccc(C)cc3)CCC2=O)cc1	active: 79.2%
Cc1cc(Nc2ccccc2F)n2nc(C)nc2n1	inconclusive: 76.6%
CO[C@H]1CN(C)C(=O)c2cc(NC(=O)CC(F)(F)F)ccc2OC[C@@H](C)N(C(=O)C2CC2)C[C@H]1C	active: 37.6%
CN1C(=O)c2cc(NC(=O)c3cccc(C(F)(F)F)c3)ccc2OC[C@@H]2O[C@H](CC(=O)O)CC[C@@H]21	inconclusive: 24%
Cc1ccc(Cl)cc1NC(=O)N(C)CCOC(=O)Nc1cccc(Cl)c1	inconclusive: 21%
COc1ccccc1CN1[C@@H](CO)[C@@H]2c3ccccc3N(C(=O)C3CCOCC3)C[C@@H]21	inconclusive: 35.7%
CCCc1ccc(S(=O)(=O)N2CCN(C(=O)c3cc(C)on3)CC2)cc1	inconclusive: 21.6%
C[C@@H]1CCCCO[C@@H](CN(C)C(=O)c2ccncc2)[C@H](C)CN([C@@H](C)CO)C(=O)c2cc(NC(=O)c3ccncc3)ccc2O1	inconclusive: 30.8%
O=c1c2cc(Br)ccc2nc(-c2ccccc2)n1O	inconclusive: 37.5%
O=C(C[C@H]1C(=O)N(Cc2ccccc2)C[C@@H]1Cc1ccccc1)Nc1ccc(Br)cc1	active: 25.6%
CN(C)S(=O)(=O)c1ccc(C(=O)OCC(=O)Nc2ccc3c(c2)OCO3)cc1	inconclusive: 89.1%
COc1ccc(CN(C)C[C@H]2OCCCC[C@H](C)Oc3ccc(NS(=O)(=O)c4c(C)noc4C)cc3C(=O)N([C@H](C)CO)C[C@H]2C)cc1	inconclusive: 26.6%

Copied from the list.
Value for `C[C@H](NC(=O)[C@H]1[C@H](CO)[C@H]2Cn3c(ccc(C4=CCCCC4)c3=O)[C@@H]1N2)c1ccccc1` under CPE inhibition: inactive: 6.13%
Value for `C[C@@H]1CCCCO[C@@H](CN(C)C(=O)c2ccncc2)[C@H](C)CN([C@@H](C)CO)C(=O)c2cc(NC(=O)c3ccncc3)ccc2O1` under CPE inhibition: inconclusive: 30.8%
